Results are given in words; binding and its absence hold for the method and conditions named. Binding seen in cells or lysates may run through a third protein. Here binding means that the protein was enriched with, or labelled near, the bait; the list need not be complete.
These binders were tested against Staufen1-TAP (UniProt O95793) (assay: affinity purification with mass spectrometry; tandem affinity purification of Staufen1-TAP from lysates of stable 293T cells, mock or pNL4-3 transfected; eluates on SDS-PAGE, 23 gel slices, in gel trypsin digestion, LC-MS/MS; FDR less than 1%).

Sequences of proteins named here, by UniProt entry; tags and fusion partners are left off. Residues count along the entry.
UniProt O95793, residues 82-577: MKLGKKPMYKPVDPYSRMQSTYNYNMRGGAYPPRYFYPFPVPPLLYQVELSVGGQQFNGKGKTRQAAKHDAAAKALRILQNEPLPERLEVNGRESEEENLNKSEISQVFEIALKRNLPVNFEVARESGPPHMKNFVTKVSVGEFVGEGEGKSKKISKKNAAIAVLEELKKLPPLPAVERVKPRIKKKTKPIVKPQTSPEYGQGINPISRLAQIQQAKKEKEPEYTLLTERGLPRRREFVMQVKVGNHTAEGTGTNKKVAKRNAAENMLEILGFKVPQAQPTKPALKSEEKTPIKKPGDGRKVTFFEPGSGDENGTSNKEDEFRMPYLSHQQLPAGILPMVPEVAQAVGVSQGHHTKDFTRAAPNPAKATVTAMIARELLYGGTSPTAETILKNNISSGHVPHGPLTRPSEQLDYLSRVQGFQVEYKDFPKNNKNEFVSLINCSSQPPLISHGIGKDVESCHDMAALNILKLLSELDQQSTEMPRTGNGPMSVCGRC

| Binder | binding |
| --- | --- |
| Cleavage and polyadenylation specificity factor subunit 1 (protein, UniProt Q10570 1-1443) MYAVYKQAHPPTGLEFSMYCNFFNNSERNLVVAGTSQLYVYRLNRDAEALTKNDRSTEGKAHREKLELAASFSFFGNVMSMASVQLAGAKRDALLLSFKDAKLSVVEYDPGTHDLKTLSLHYFEEPELRDGFVQNVHTPRVRVDPDGRCAAMLVYGTRLVVLPFRRESLAEEHEGLVGEGQRSSFLPSYIIDVRALDEKLLNIIDLQFLHGYYEPTLLILFEPNQTWPGRVAVRQDTCSIVAISLNITQKVHPVIWSLTSLPFDCTQALAVPKPIGGVVVFAVNSLLYLNQSVPPYGVALNSLTTGTTAFPLRTQEGVRITLDCAQATFISYDKMVISLKGGEIYVLTLITDGMRSVRAFHFDKAAASVLTTSMVTMEPGYLFLGSRLGNSLLLKYTEKLQEPPASAVREAADKEEPPSKKKRVDATAGWSAAGKSVPQDEVDEIEVYGSEAQSGTQLATYSFEVCDSILNIGPCANAAVGEPAFLSEEFQNSPEPDLEIVVCSGHGKNGALSVLQKSIRPQVVTTFELPGCYDMWTVIAPVRKEEEDNPKGEGTEQEPSTTPEADDDGRRHGFLILSREDSTMILQTGQEIMELDTSGFATQGPTVFAGNIGDNRYIVQVSPLGIRLLEGVNQLHFIPVDLGAPIVQCAVADPYVVIMSAEGHVTMFLLKSDSYGGRHHRLALHKPPLHHQSKVITLCLYRDLSGMFTTESRLGGARDELGGRSGPEAEGLGSETSPTVDDEEEMLYGDSGSLFSPSKEEARRSSQPPADRDPAPFRAEPTHWCLLVRENGTMEIYQLPDWRLVFLVKNFPVGQRVLVDSSFGQPTTQGEARREEATRQGELPLVKEVLLVALGSRQSRPYLLVHVDQELLIYEAFPHDSQLGQGNLKVRFKKVPHNINFREKKPKPSKKKAEGGGAEEGAGARGRVARFRYFEDIYGYSGVFICGPSPHWLLVTGRGALRLHPMAIDGPVDSFAPFHNVNCPRGFLYFNRQGELRISVLPAYLSYDAPWPVRKIPLRCTAHYVAYHVESKVYAVATSTNTPCARIPRMTGEEKEFETIERDERYIHPQQEAFSIQLISPVSWEAIPNARIELQEWEHVTCMKTVSLRSEETVSGLKGYVAAGTCLMQGEEVTCRGRILIMDVIEVVPEPGQPLTKNKFKVLYEKEQKGPVTALCHCNGHLVSAIGQKIFLWSLRASELTGMAFIDTQLYIHQMISVKNFILAADVMKSISLLRYQEESKTLSLVSRDAKPLEVYSVDFMVDNAQLGFLVSDRDRNLMVYMYLPEAKESFGGMRLLRRADFHVGAHVNTFWRTPCRGATEGLSKKSVVWENKHITWFATLDGGIGLLLPMQEKTYRRLLMLQNALTTMLPHHAGLNPRAFRMLHVDRRTLQNAVRNVLDGELLNRYLYLSTMERSELAKKIGTTPDIILDDLLETDRVTAHF | binds |
| CDP-diacylglycerol–inositol 3-phosphatidyltransferase (protein, UniProt O14735 1-213) MPDENIFLFVPNLIGYARIVFAIISFYFMPCCPLTASSFYLLSGLLDAFDGHAARALNQGTRFGAMLDMLTDRCSTMCLLVNLALLYPGATLFFQISMSLDVASHWLHLHSSVVRGSESHKMIDLSGNPVLRIYYTSRPALFTLCAGNELFYCLLYLFHFSEGPLVGSVGLFRMGLWVTAPIALLKSLISVIHLITAARNMAALDAADRAKKK | binds |
| Delta-1-pyrroline-5-carboxylate synthetase (protein, UniProt P54886 1-795) MLSQVYRCGFQPFNQHLLPWVKCTTVFRSHCIQPSVIRHVRSWSNIPFITVPLSRTHGKSFAHRSELKHAKRIVVKLGSAVVTRGDECGLALGRLASIVEQVSVLQNQGREMMLVTSGAVAFGKQRLRHEILLSQSVRQALHSGQNQLKEMAIPVLEARACAAAGQSGLMALYEAMFTQYSICAAQILVTNLDFHDEQKRRNLNGTLHELLRMNIVPIVNTNDAVVPPAEPNSDLQGVNVISVKDNDSLAARLAVEMKTDLLIVLSDVEGLFDSPPGSDDAKLIDIFYPGDQQSVTFGTKSRVGMGGMEAKVKAALWALQGGTSVVIANGTHPKVSGHVITDIVEGKKVGTFFSEVKPAGPTVEQQGEMARSGGRMLATLEPEQRAEIIHHLADLLTDQRDEILLANKKDLEEAEGRLAAPLLKRLSLSTSKLNSLAIGLRQIAASSQDSVGRVLRRTRIAKNLELEQVTVPIGVLLVIFESRPDCLPQVAALAIASGNGLLLKGGKEAAHSNRILHLLTQEALSIHGVKEAVQLVNTREEVEDLCRLDKMIDLIIPRGSSQLVRDIQKAAKGIPVMGHSEGICHMYVDSEASVDKVTRLVRDSKCEYPAACNALETLLIHRDLLRTPLFDQIIDMLRVEQVKIHAGPKFASYLTFSPSEVKSLRTEYGDLELCIEVVDNVQDAIDHIHKYGSSHTDVIVTEDENTAEFFLQHVDSACVFWNASTRFSDGYRFGLGAEVGISTSRIHARGPVGLEGLLTTKWLLRGKDHVVSDFSEHGSLKYLHENLPIPQRNTN | binds |

Continued, values first:

| binding | Binder |
| --- | --- |
| binds | AP-3 complex subunit delta-1 (protein, UniProt O14617 1-1153) MALKMVKGSIDRMFDKNLQDLVRGIRNHKEDEAKYISQCIDEIKQELKQDNIAVKANAVCKLTYLQMLGYDISWAAFNIIEVMSASKFTFKRIGYLAASQSFHEGTDVIMLTTNQIRKDLSSPSQYDTGVALTGLSCFVTPDLARDLANDIMTLMSHTKPYIRKKAVLIMYKVFLKYPESLRPAFPRLKEKLEDPDPGVQSAAVNVICELARRNPKNYLSLAPLFFKLMTSSTNNWVLIKIIKLFGALTPLEPRLGKKLIEPLTNLIHSTSAMSLLYECVNTVIAVLISLSSGMPNHSASIQLCVQKLRILIEDSDQNLKYLGLLAMSKILKTHPKSVQSHKDLILQCLDDKDESIRLRALDLLYGMVSKKNLMEIVKKLMTHVDKAEGTTYRDELLTKIIDICSQSNYQYITNFEWYISILVELTRLEGTRHGHLIAAQMLDVAIRVKAIRKFAVSQMSALLDSAHLLASSTQRNGICEVLYAAAWICGEFSEHLQEPHHTLEAMLRPRVTTLPGHIQAVYVQNVVKLYASILQQKEQAGEAEGAQAVTQLMVDRLPQFVQSADLEVQERASCILQLVKHIQKLQAKDVPVAEEVSALFAGELNPVAPKAQKKVPVPEGLDLDAWINEPLSDSESEDERPRAVFHEEEQRRPKHRPSEADEEELARRREARKQEQANNPFYIKSSPSPQKRYQDTPGVEHIPVVQIDLSVPLKVPGLPMSDQYVKLEEERRHRQKLEKDKRRKKRKEKEKKGKRRHSSLPTESDEDIAPAQQVDIVTEEMPENALPSDEDDKDPNDPYRALDIDLDKPLADSEKLPIQKHRNTETSKSPEKDVPMVEKKSKKPKKKEKKHKEKERDKEKKKEKEKKKSPKPKKKKHRKEKEERTKGKKKSKKQPPGSEEAAGEPVQNGAPEEEQLPPESSYSLLAENSYVKMTCDIRGSLQEDSQVTVAIVLENRSSSILKGMELSVLDSLNARMARPQGSSVHDGVPVPFQLPPGVSNEAQYVFTIQSIVMAQKLKGTLSFIAKNDEGATHEKLDFRLHFSCSSYLITTPCYSDAFAKLLESGDLSMSSIKVDGIRMSFQNLLAKICFHHHFSVVERVDSCASMYSRSIQGHHVCLLVKKGENSVSVDGKCSDSTLLSNLLEEMKATLAKC |
| binds | Cleavage and polyadenylation specificity factor subunit 7 (protein, UniProt Q8N684 1-471) MSEGVDLIDIYADEEFNQDPEFNNTDQIDLYDDVLTATSQPSDDRSSSTEPPPPVRQEPSPKPNNKTPAILYTYSGLRNRRAAVYVGSFSWWTTDQQLIQVIRSIGVYDVVELKFAENRANGQSKGYAEVVVASENSVHKLLELLPGKVLNGEKVDVRPATRQNLSQFEAQARKRECVRVPRGGIPPRAHSRDSSDSADGRATPSENLVPSSARVDKPPSVLPYFNRPPSALPLMGLPPPPIPPPPPLSSSFGVPPPPPGIHYQHLMPPPPRLPPHLAVPPPGAIPPALHLNPAFFPPPNATVGPPPDTYMKASAPYNHHGSRDSGPPPSTVSEAEFEDIMKRNRAISSSAISKAVSGASAGDYSDAIETLLTAIAVIKQSRVANDERCRVLISSLKDCLHGIEAKSYSVGASGSSSRKRHRSRERSPSRSRESSRRHRDLLHNEDRHDDYFQERNREHERHRDRERDRHH |

Source: paper PMC3486646
